# Measurements as given in US9637519B2 (CAREGEN CO., LTD., priority 2013, dated 2017).
# Experiment: general procedure: peptide synthesis; chloro trityl chloride resin
# Details: whole synthesis
sequence,measurement,setting,value
WVPYQARVPYPR,crude mass,,0.85 g
same,crude yield,scale of the general procedure 700 mg resin,89.9%

# Ends that are not written are not given here.
